In paper PMC6687725:
Results are given in words; binding and its absence hold for the method and conditions named. Some binding calls cover weakened binding; strength is not graded here.

The chains behind the UniProt entries cited, without tags or fusion partners. Residues count along the entry.
UniProt Q9Z1J3, residues 59-459: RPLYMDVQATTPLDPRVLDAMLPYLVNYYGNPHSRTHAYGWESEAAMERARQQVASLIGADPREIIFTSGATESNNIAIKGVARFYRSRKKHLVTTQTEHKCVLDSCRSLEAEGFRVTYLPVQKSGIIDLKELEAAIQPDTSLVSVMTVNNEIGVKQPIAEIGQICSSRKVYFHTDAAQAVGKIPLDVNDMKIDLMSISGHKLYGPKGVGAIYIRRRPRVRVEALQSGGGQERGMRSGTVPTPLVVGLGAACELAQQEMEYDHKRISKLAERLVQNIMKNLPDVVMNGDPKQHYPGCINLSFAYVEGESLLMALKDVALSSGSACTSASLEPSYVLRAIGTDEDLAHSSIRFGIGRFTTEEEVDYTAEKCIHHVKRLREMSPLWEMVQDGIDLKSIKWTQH
UniProt P0A6A8: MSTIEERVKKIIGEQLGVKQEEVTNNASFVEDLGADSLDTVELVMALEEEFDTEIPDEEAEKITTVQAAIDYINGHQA

Biological target: NFS1 (mouse) (UniProt Q9Z1J3)
Experiment: co-purification (Ni affinity, then size exclusion); His6-NFS1 co-expressed with ISD11 in E. coli; HiTrap chelating HP with nickel, 50 mM Na2HPO4, 150 mM NaCl, pH 8, imidazole gradient, then Superdex 200

Molecule	binding
ACP (from UniProt P0A6A8 1-78)	binds
ISD11 (protein, UniProt Q8K215 1-91) MAASSRAQVLDLYRAMMRESKHFSAYNYRMYAVRRIRDAFRENKNVKDPVEIQALVNKAKRDLEIIRRQVHIGQLYSTDKLIIENQEKPRT	binds
